# Test results reported in article PMC1238739.
# By UniProt entry, the sequences of proteins in these tests, tags left out.
# UniProt P0C0U1: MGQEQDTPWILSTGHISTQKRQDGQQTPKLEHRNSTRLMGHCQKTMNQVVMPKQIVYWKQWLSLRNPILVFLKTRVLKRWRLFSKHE
# UniProt P21796: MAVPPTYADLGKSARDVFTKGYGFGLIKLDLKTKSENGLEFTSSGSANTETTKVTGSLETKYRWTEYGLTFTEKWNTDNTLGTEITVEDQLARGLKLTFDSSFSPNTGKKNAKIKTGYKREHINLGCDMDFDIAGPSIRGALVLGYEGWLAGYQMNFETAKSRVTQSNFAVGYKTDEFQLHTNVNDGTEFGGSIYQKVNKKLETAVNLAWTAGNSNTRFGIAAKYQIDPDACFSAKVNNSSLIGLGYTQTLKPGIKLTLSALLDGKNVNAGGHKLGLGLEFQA
# Read-outs that look alike come from different tables or passages of the source. Results are given in words; binding and its absence hold for the method and conditions named. In cells and extracts the contact can be indirect. Some binding calls cover weakened binding; strength is not graded here. For part of these data: Tags and fused reporters may be left off the sequences shown.
# B1: HA-tagged ANT3 (protein, UniProt P12236 1-298)
# chain: MTEQAISFAKDFLAGGIAAAISKTAVAPIERVKLLLQVQHASKQIAADKQYKGIVDCIVRIPKEQGVLSFWRGNLANVIRYFPTQALNFAFKDKYKQIFLGGVDKHTQFWRYFAGNLASGGAAGATSLCFVYPLDFARTRLAADVGKSGTEREFRGLGDCLVKITKSDGIRGLYQGFSVSVQGIIIYRAAYFGVYDTAKGMLPDPKNTHIVVSWMIAQTVTAVAGVVSYPFDTVRRRMMMQSGRKGADIMYTGTVDCWRKIFRDEGGKAFFKGAWSNVLRGMGGAFVLVLYDELKKVI
# B2: Flag-tagged ANT3 (protein, UniProt P12236 1-298)
# chain: B1 chain
# Experiments:
# Experiment in all cases: co-IP
# [1] = target: HA-PB1-F2-GFP (influenza virus A/PuertoRico/8/34) (UniProt P0C0U1)
# [2] = target: PB1-F2 (transfected in 293T cells, coimmunoprecipitation of Figure 5B) (influenza virus A/PuertoRico/8/34) (UniProt P0C0U1)
# [3] = target: HA-PB1-F2-GFP (influenza virus A/PuertoRico/8/34) (UniProt P0C0U1); remark: listed apart in the source
molecule,measurement,setting,value
Flag-tagged VDAC1 (from UniProt P21796 1-283),binding,[1],binds
B1,binding,[2],binds
B2,binding,[3],binds
